Source: patent US20250025473A1 (priority 2021, published 2025)

System: phosphorylated Akt (pAkt T308)
Type: cell-based, human
Details: HaCat, 10 μM insulin, permeabilized cells

## CN[C@@H]1C[C@H]2O[C@@](C)([C@@H]1OC)n1c3ccccc3c3c4c(c5c6ccccc6n2c5c31)C(=O)NC4 [Staurosporine, (9S,10R,11R,13R)-2,3,10,11,12,13-hexahydro-10-methoxy-9-methyl-11-(methylamino)-9,13-epoxy-1H,9H-diindolo[1,2,3-gh:3′,2′,1′-lm]pyrrolo[3,4-j][1,7]benzodiazonin-1-one, reference compound]
  dose inhibiting intracellular Akt phosphorylation in response to insulin: ≤ 0.1 µM
